In all, about 260,000 compounds went through this assay and about 1,500 (0.58%) were called active. The inconclusive results got no clear call from the source; some entries with a clear call stand among them for comparison.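 The calls were made as follows: active = inhibition above a set limit at one or more doses, reproduced on every date tested; inconclusive = results disagree between test dates, or hit never tested in dose response; inactive = the rest.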
What follows are molecules tested against Virion infectivity factor (Human immunodeficiency virus type 1 group M subtype B (isolate BH10)) + Virion infectivity factor (Human immunodeficiency virus type 1 group M subtype B (isolate BRU/LAI)) + Virion infectivity factor (Human immunodeficiency virus type 1 group M subtype B (isolate PCV12)) + Virion infectivity factor (Human immunodeficiency virus type 1 group M subtype B (isolate HXB2)) + DNA dC->dU-editing enzyme APOBEC-3G (Homo sapiens) (UniProt P69720+P69721+P69722+P69723+Q9HC16) (assay: inhibitors of Vif binding to APOBEC3G peptide, primary screen, biochemical, TR-FRET, GST-Vif 1-94, biotin-A3G peptide, dose response retest (AID 1117319;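 also: Vif residues 1-94 fused to GST binding biotinylated APOBEC3G peptide 110-148; 0% = full assay without inhibitor and 100% = GST in place of GST-Vif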)). Details: stronger effect = higher value.

The chains behind the UniProt entries cited, without tags or fusion partners. Where a name states a change or a piece, a line headed by the entry shows the natural chain unless it says otherwise.
UniProt P69720: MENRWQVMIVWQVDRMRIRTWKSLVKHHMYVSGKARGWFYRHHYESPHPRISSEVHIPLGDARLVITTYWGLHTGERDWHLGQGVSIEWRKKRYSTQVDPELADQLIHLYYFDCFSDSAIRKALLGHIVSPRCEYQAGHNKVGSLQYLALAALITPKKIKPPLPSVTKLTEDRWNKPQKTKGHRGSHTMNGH
UniProt P69721: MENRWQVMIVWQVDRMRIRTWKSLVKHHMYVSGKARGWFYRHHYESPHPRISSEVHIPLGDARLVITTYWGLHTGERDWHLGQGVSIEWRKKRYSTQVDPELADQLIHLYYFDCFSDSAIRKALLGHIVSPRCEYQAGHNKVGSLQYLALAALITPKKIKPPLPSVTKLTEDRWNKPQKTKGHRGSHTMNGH
UniProt P69722: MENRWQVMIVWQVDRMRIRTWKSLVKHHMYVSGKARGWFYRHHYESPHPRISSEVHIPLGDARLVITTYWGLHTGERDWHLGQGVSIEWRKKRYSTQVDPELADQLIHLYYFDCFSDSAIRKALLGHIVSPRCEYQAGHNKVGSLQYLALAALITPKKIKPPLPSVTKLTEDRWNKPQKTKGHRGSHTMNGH
UniProt P69723: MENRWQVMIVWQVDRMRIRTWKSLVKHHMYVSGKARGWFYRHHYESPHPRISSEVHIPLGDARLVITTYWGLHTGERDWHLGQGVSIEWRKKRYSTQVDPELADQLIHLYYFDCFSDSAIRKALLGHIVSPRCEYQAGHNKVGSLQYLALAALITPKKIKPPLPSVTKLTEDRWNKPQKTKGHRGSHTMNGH
UniProt Q9HC16: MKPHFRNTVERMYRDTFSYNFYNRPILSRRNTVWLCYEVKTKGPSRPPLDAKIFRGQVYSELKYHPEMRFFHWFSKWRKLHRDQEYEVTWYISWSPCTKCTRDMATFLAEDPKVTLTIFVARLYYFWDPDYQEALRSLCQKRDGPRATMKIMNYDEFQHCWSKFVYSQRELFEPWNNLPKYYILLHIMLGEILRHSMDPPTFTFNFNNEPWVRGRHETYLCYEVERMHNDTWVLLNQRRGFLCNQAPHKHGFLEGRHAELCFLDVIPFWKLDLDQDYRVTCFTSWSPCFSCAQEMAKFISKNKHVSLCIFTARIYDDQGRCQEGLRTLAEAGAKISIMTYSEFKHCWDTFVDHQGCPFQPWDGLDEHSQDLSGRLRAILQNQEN

Compound | inhibition
Nc1ccc2oc(=O)c3ccccc3c2c1 | inconclusive: 50%
CCCOC(=O)C1=C(C)NC2=C(C(=O)C(C(=O)OC)C(C)C2)C1c1ccc(N(C)C)cc1 (configuration not stated) | inconclusive: 57%
Cn1c(=O)c2c(nc(CN3CCc4ccccc4C3)n2Cc2ccccc2F)n(C)c1=O | inconclusive: 60.3%
COc1ccc(Cn2nnnc2C(c2ccccc2Cl)N2CCN(C)CC2)cc1 (configuration not stated) | inconclusive: 36.8%
COc1cccc(/C=N/NC(=O)CNC(=O)COc2cccc(C)c2)c1O | inconclusive: 35.4%
O=C1NN=C(c2ccc(Cl)cc2)CC1c1cccc(Cl)c1 (configuration not stated) | inconclusive: 35.4%
Cc1ccccc1NC(=O)Cc1nc(COC(=O)COc2cccc(C)c2C)cs1 | inactive: -1.31%
O=C(COC(=O)c1ncc(Cl)c(Cl)c1Cl)Nc1ccccc1OC(F)F | inconclusive: 39.6%
C/C(CCN1CCCCc2nc(C)c(C)cc21)=N\O[C@@H](C)CN1CCCCc2nc(C)c(C)cc21 | inconclusive: 41.7%
CC(=O)c1ccc(S(=O)(=O)Nc2ccc(C(=O)NCC(c3cccs3)N3CCOCC3)cc2)cc1 (configuration not stated) | inactive: 3.75%
CCOC(=O)N1CCN(C(=O)CCCOc2ccccc2)CC1 | inconclusive: 40.8%
COc1ccc(CN2CCN(Cc3cccc(OC)c3)C(CCO)C2)cc1 (configuration not stated) | inconclusive: 39.8%
O=C(OCC(=O)N1CCCC1)c1c2c(nc3ccccc13)CCCCC2 | inactive: -4.27%
Cc1nc(C(=O)NCCC(C)C)sc1C1(C)CC(c2ccccc2)=NO1 (configuration not stated) | inconclusive: 42.3%
COc1ccc(OC)c(N/C(C)=C/C(=O)c2ccc(C)o2)c1 | inconclusive: 68.8%
COc1ccc(NC(=O)/C(C#N)=C/C=C/c2ccco2)cc1 | inconclusive: 39.8%
CN(C)c1c2ccccc2nc2c(F)c(F)c(F)c(F)c12 | inactive: -2.85%
O=C(NCC(=O)N(Cc1ccco1)C(C(=O)NC1CCCCC1)c1cccnc1)c1ccco1 (configuration not stated) | inconclusive: 45.7%
N#C/C(=C/c1ccc(N2CCOCC2)c([N+](=O)[O-])c1)C(N)=O | inconclusive: 33.8%

Compound | inhibition
Cc1ccc(NC(=O)C2CC(O)CN2C(=O)OCc2ccccc2)cc1C (configuration not stated) | inactive: -2.11%
COc1cc(S(=O)(=O)N2CCC(c3nc4ccccc4s3)CC2)ccc1S(=O)(=O)N1CC(C)CC(C)C1 (configuration not stated) | inconclusive: 35.1%
Cc1cc(Nc2ccc(F)cc2C)n2nc(C)nc2n1 | inconclusive: 50.2%
CSC1=C(C#N)C(=O)NC(c2ccccc2O)S1 (configuration not stated) | inconclusive: 49.6%
Cc1cc(O)c(C=Nc2ccc(Cl)cn2)c(=O)o1 | inconclusive: 56.9%
CC(C)(C)c1ccc(C(=O)NCc2nnc(SCC(=O)NC3CCCC3)o2)cc1 | inconclusive: 43.7%
COc1ccccc1-c1ccc(/C=C2\C=CC(=O)O2)o1 | inconclusive: 37.3%
NC(=O)N1CC(O)CC1C(=O)Nc1ccc(Cl)c(Cl)c1 (configuration not stated) | inconclusive: 51.7%
CC(=O)N1CCSc2ccc(S(=O)(=O)N3CCC(C)CC3)cc21 | inconclusive: 38.4%
CCOC(=O)c1ccc(NC(=S)NC(=O)c2cncc(Br)c2)cc1 | inconclusive: 33.7%
Cc1ccccc1-n1nc2c(c1NC(=O)c1cc3ccccc3oc1=O)CS(=O)C2 (configuration not stated) | inconclusive: 27.8%
COc1cc(CCC(O)CC(=O)CCc2ccccc2)ccc1O (configuration not stated) | inconclusive: 40.9%
O=C(NCCCN1CCOCC1)c1ccccc1NS(=O)(=O)c1ccc(Br)cc1 | inconclusive: 38.4%
O=C(CCC(=O)NNC(=O)c1ccc([N+](=O)[O-])cc1)NCc1ccccc1 | inactive: 6.94%
C/C(=N\NC1=NCCN1)c1ccc(N)c([N+](=O)[O-])c1 | inconclusive: 39.2%
O=C(Cc1cccs1)N(c1ccccc1)C1C=CS(=O)(=O)C1 (configuration not stated) | inconclusive: 50.9%
COC(=O)c1ccc(C2Nc3ccc(/C(C)=N/NC(=O)C(OC)c4ccccc4)cc3C3C=CCC32)cc1 (configuration not stated) | inactive: 11.3%
O=C(CNc1ccc2c(c1)OCO2)N/N=C\c1ccccc1Cl | inconclusive: 53.1%
COc1ccc(C(=O)N/C(=C\c2ccco2)C(=O)OCc2ccco2)cc1 | inactive: 19.9%

A run of entries from further up:
Compound | inhibition
Cc1cc(O)c(C=Nc2ccc(Cl)cn2)c(=O)o1 | inconclusive: 56.9%
CC(C)(C)c1ccc(C(=O)NCc2nnc(SCC(=O)NC3CCCC3)o2)cc1 | inconclusive: 43.7%
COc1ccccc1-c1ccc(/C=C2\C=CC(=O)O2)o1 | inconclusive: 37.3%
NC(=O)N1CC(O)CC1C(=O)Nc1ccc(Cl)c(Cl)c1 (configuration not stated) | inconclusive: 51.7%
CC(=O)N1CCSc2ccc(S(=O)(=O)N3CCC(C)CC3)cc21 | inconclusive: 38.4%
CCOC(=O)c1ccc(NC(=S)NC(=O)c2cncc(Br)c2)cc1 | inconclusive: 33.7%
Cc1ccccc1-n1nc2c(c1NC(=O)c1cc3ccccc3oc1=O)CS(=O)C2 (configuration not stated) | inconclusive: 27.8%
COc1cc(CCC(O)CC(=O)CCc2ccccc2)ccc1O (configuration not stated) | inconclusive: 40.9%
O=C(NCCCN1CCOCC1)c1ccccc1NS(=O)(=O)c1ccc(Br)cc1 | inconclusive: 38.4%
O=C(CCC(=O)NNC(=O)c1ccc([N+](=O)[O-])cc1)NCc1ccccc1 | inactive: 6.94%
C/C(=N\NC1=NCCN1)c1ccc(N)c([N+](=O)[O-])c1 | inconclusive: 39.2%
O=C(Cc1cccs1)N(c1ccccc1)C1C=CS(=O)(=O)C1 (configuration not stated) | inconclusive: 50.9%
COC(=O)c1ccc(C2Nc3ccc(/C(C)=N/NC(=O)C(OC)c4ccccc4)cc3C3C=CCC32)cc1 (configuration not stated) | inactive: 11.3%
O=C(CNc1ccc2c(c1)OCO2)N/N=C\c1ccccc1Cl | inconclusive: 53.1%

The list continues.

Compound | inhibition
C=CCn1c(Cc2nc3ccccc3[nH]2)n[nH]c1=S | inconclusive: 43.6%
Cc1ccc2cc(C#N)c(NCCCNC(=O)C3CCCO3)nc2c1 (configuration not stated) | inconclusive: 41.5%
NNc1ncnc2c1cnn2-c1ccccc1 | inconclusive: 34.6%
CCOC(=O)C1(Cc2ccc(OC)cc2)CCN(C(=O)Cn2cnnn2)CC1 | inconclusive: 44.3%
Nc1c(N2CCCC2)cc(Cl)c2nonc12 | inactive: 22.8%
NS(=O)(=O)c1ccc(NC(=S)N2CCN(c3cccc(Cl)c3)CC2)cc1 | inconclusive: 40.9%
Cc1ccc2c(c1)NCC(C(=O)NC1CCCCC1)O2 (configuration not stated) | inconclusive: 36.8%
CCn1c2ccccc2c2cc(NC(=O)c3ccc(Br)o3)ccc21 | inconclusive: 33.8%
COc1ccc(Cn2nnnc2C(c2cc3ccc(OC)cc3[nH]c2=O)N2CCC(C)CC2)cc1 (configuration not stated) | inconclusive: 62.1%
CCc1nnc(NC(=O)CSc2nnc(Cc3ccc(OC)cc3)o2)s1 | inconclusive: 32.2%
CC(C)(C)NC(=O)NC(=O)CSc1ccc(S(=O)(=O)N2CCCCC2)cn1 | inconclusive: 47%
CC(=O)Nc1ccc2c(COC(=O)CC3Sc4ccccc4NC3=O)cc(=O)oc2c1 (configuration not stated) | inactive: -2.31%
CCOC(=O)Cc1csc(NC(=O)c2cccs2)n1 | inconclusive: 56.2%
CC1CN(S(=O)(=O)c2ccc(Cl)c(C(F)(F)F)c2)CC(C)O1 (configuration not stated) | inconclusive: 57.7%
C/C(=N\NC(=O)CNc1ccccc1Cl)C(C)(C)C | inconclusive: 34.1%
COc1ccc(NC(=O)c2nc3nccc(C)n3n2)cn1 | inconclusive: 34%
COc1ccc(-c2cc(C(=O)NN)n(-c3ccccc3)n2)cc1 | inconclusive: 33.6%
COc1ccc(C(=O)NC2CC3CCCC(C2)N3CC(C)C)cc1OC (configuration not stated) | inactive: -7.52%
CCOC(=O)N/N=C(\CCC(=O)O)c1cccs1 | inconclusive: 41.2%
